# The campaign covered roughly 390,000 compounds. About 4,000 (1%) were called active. The shares of active, inactive and inconclusive entries below differ from those in the screen. The call rests on the fitted dose curve; in most records, active means well fitted inhibition curve with a large enough effect; inconclusive means small, poorly fitted or top-dose-only effect, or another doubt; inactive means no such curve, though single readings can be large or run the other way. Potencies of inconclusive entries are doubtful fits and often do not repeat.
# Amino acid sequences for entries named in this document (tags omitted). A change or cut given only in a name is not applied to a line headed by its entry.
# UniProt Q9UNA4: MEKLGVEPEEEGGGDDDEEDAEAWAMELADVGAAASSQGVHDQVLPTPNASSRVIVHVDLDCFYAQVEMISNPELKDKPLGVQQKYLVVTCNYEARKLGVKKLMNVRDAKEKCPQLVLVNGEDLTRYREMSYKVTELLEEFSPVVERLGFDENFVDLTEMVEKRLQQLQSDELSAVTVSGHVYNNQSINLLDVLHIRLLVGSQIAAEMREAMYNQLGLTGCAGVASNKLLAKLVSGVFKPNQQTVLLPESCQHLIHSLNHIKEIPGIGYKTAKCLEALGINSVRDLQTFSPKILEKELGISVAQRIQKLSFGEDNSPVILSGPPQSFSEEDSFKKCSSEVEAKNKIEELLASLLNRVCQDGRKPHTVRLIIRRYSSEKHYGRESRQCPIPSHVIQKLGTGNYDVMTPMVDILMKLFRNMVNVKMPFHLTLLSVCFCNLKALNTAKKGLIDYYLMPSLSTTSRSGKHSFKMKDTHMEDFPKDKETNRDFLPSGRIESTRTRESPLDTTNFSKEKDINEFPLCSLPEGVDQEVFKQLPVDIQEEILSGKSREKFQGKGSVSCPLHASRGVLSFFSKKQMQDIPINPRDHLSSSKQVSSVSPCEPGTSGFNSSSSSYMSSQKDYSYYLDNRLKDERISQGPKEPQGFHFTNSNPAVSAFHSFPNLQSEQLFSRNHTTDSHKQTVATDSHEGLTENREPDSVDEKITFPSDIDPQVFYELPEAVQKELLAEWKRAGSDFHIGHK
# Target: DNA polymerase iota (Homo sapiens) (UniProt Q9UNA4)
# Experiment: qHTS for Inhibitors of Polymerase Iota
# Conditions: Pol iota fluorescent replication assay, 10 min; series mostly up to 115 µM; activity, negative = inhibition: at the top concentration
# Method in brief: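 Pol iota at 10 nM preincubated 15 min with compounds at room temperature; reaction started with fluorescent substrate, 50 nM final. Fluorescence read kinetically at 0 and 10 min; buffer-only wells as negative control.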
# Potency means the concentration at half of the fitted maximal effect.
Structure (SMILES),"activity, negative = inhibition",Potency
Cc1ccc(NC(=O)c2ccc(NC(=O)C3CCCC3)cc2)c(C)c1,inactive: 19.5%,–
CC(C)(C)N1C(=O)c2ccccc2NC(=O)N1Cc1ccc(Br)cc1,–,"inconclusive: 3.16 µM [inhibitor, partial curve, poor fit]"
C#CCOCCOCCOCCNc1nc(N2CCN(C(=O)[C@H]([C@@H](C)CC)n3cc(CCCN=C(N)N)nn3)CC2)nc(N2CCN(C(=O)[C@H]([C@@H](C)CC)n3cc(CCC(=O)O)nn3)CC2)n1,inactive: 18.3%,–
COc1ccc(COCCN2CCN(S(=O)(=O)c3ccccc3)CCC2=O)cc1,–,"inconclusive: 89.1 µM [inhibitor, single point]"
O=C(COC(=O)C12CC3CC(CC(O)(C3)C1)C2)NC(=O)NCc1ccco1,–,"inconclusive: 28.2 µM [inhibitor, full curve, poor fit]"
O=C(NCc1ccc(C(F)(F)F)cc1)C1CC(c2ccccc2[N+](=O)[O-])=NO1 (centres undefined),–,"inconclusive: 31.6 µM [inhibitor, partial curve, poor fit]"
CCc1sc(C(=O)Nc2cccc(C(C)=O)c2)cc1C,inactive: 13.5%,–
Cc1cccc(N2CC(C(=O)Nc3nnc(SCC(=O)Nc4nccs4)s3)CC2=O)c1 (centres undefined),inactive: -9.16%,–
O=c1[nH][nH]c2cc(=O)n(-c3cccc(C(F)(F)F)c3)nc12,–,"inconclusive: 56.2 µM [inhibitor, partial curve, poor fit]"
CCOc1ccc(C(=O)Cc2ccc3oc(C(=O)O)cc3c2)c(O)c1,–,"inconclusive: 112 µM [inhibitor, partial curve, poor fit]"
COc1ccc(-c2nc3nc(C)cc(Nc4cccc(C(F)(F)F)c4)n3n2)cc1,inactive: -17.2%,–
CCOC1CCCC(n2cnc3c(=S)nc[nH]c32)O1 (centres undefined),–,"inconclusive: 39.8 µM [inhibitor, single point]"
Oc1ccc(Br)cc1CNn1cnnc1,–,"inconclusive: 89.1 µM [inhibitor, single point]"
COC/C=C/C1=CC2=CC(=O)C(C)(OC(=O)c3cnc4ccccc4n3)C(=O)C2=CN1Cc1ccc(OC)cc1 (centres undefined),–,"inconclusive: 56.2 µM [inhibitor, partial curve, poor fit]"
CCCC(=O)C1=C(c2ccc(C)cc2)N(C(=O)CCC)n2cnnc2S1,–,"inconclusive: 28.2 µM [inhibitor, single point]"
Cc1ccc(C(=S)NCS(=O)(=O)c2ccc(C)cc2)cc1,–,"inconclusive: 50.1 µM [inhibitor, partial curve, poor fit]"
Cc1n[nH]c(C)c1CCc1nc2c3ccccc3nc(SCC(=O)Nc3ccc(F)cc3)n2n1,–,"inconclusive: 89.1 µM [inhibitor, single point]"
Cc1ccc(NC(=O)c2cnc(N3CCCCC3)c3ccccc23)cc1Cl,–,"inconclusive: 89.1 µM [inhibitor, single point]"
CCCCN(C)C1=CC2=CC(=C(C#N)C#N)CCC2CC1 (centres undefined),–,"inconclusive: 22.4 µM [inhibitor, single point]"
COc1ccc(C(c2nnnn2CCc2ccccc2)N2CCN(C3CCCC3)CC2)cc1OC (centres undefined),–,"inconclusive: 7.94 µM [inhibitor, full curve, poor fit]"
CCc1ccc(C(=O)CSc2n[nH]c(C)n2)cc1,–,"inconclusive: 15.8 µM [inhibitor, full curve, poor fit]"
COc1ccccc1CN(C)C(=O)c1sccc1-c1ccccc1,–,"inconclusive: 63.1 µM [inhibitor, partial curve, poor fit]"

Structure (SMILES),"activity, negative = inhibition",Potency
COC(=O)CC1C(=O)NCCN1C(=O)OC(C)(C)C (centres undefined),–,"inconclusive: 2.82 µM [inhibitor, full curve, poor fit]"
O=C(/C=C/c1ccccc1)CC(O)(c1ccccc1)C(F)(F)C(F)F (centres undefined),–,"inconclusive: 14.1 µM [inhibitor, full curve, poor fit]"
COc1ccc(Cc2c(O)nc(SCC(=O)N3CCCCCC3)[nH]c2=O)cc1,–,"inconclusive: 89.1 µM [inhibitor, partial curve, poor fit]"
Cc1cccc(-c2oc3ccccc3c2C#CCCCCO)c1,–,"inconclusive: 39.8 µM [inhibitor, single point]"
N#Cc1ccccc1S(=O)(=O)N1CCN(C(=O)c2ccc(-n3cncn3)c([N+](=O)[O-])c2)CC1,inactive: -20.4%,–
COC(=O)C1=C(C)N(Cc2ccc(OC)cc2)C(=O)/C1=C\c1ccco1,–,"inconclusive: 15.8 µM [inhibitor, full curve, poor fit]"
CCN(Cc1ccncc1)C(=O)c1cc(Br)cc(Br)c1O,inactive: 21.5%,–
COc1ccc(C2CC(O)(c3ccccc3)Oc3cc(OC)c(OC)c(OC)c32)cc1 (centres undefined),–,"inconclusive: 100 µM [inhibitor, single point]"
COc1ccc(C(C(=O)NC2CCCCC2)N(C(=O)c2ccco2)c2ccc(-n3cnnn3)c(C)c2)cc1 (centres undefined),–,"inconclusive: 1.26 µM [inhibitor, partial curve, poor fit]"
NC1C=CC=C(C(=O)O)C1 (centres undefined),–,inactive
O=C1CC(c2nnc(Cc3cccc(Cl)c3)o2)CN1c1ccccc1 (centres undefined),–,"inconclusive: 2.51 µM [inhibitor, full curve, poor fit]"
CC(C)(Sc1ccc(CCN(CCCCC2CCCCC2)C(=O)NC2CCCCC2)cc1)C(=O)O,inactive: 35.9%,–
O=C1C(=O)N(C/C=C/c2ccccc2)c2ccccc21,–,"inconclusive: 25.1 µM [inhibitor, full curve, poor fit]"
CC(C)CC(N)c1cn([C@@H](CCC(=O)O)C(=O)N2CCNCC2)nn1 (some centres undefined),–,"inconclusive: 70.8 µM [inhibitor, partial curve]"
CC(=O)CN1C(=O)NC(c2ccccc2)(c2ccccc2)C1=O,–,"inconclusive: 50.1 µM [inhibitor, partial curve, poor fit]"
COc1ccc(-n2nc(C#N)c(Cl)cc2=O)cc1,–,"inconclusive: 22.4 µM [inhibitor, full curve]"
Cc1ccccc1Cn1c2ccccc2c2cnn(CC(=O)NCCCc3ccccc3)c(=O)c21,inactive: 23.9%,–
CN(C)c1cccc(C(=O)OCC(=O)c2ccc[nH]2)c1,–,"inconclusive: 12.6 µM [inhibitor, partial curve, poor fit]"
COc1cc(-c2noc(-c3ccc(N(C)C)c([N+](=O)[O-])c3)n2)cc(OC)c1OC,–,"inconclusive: 89.1 µM [inhibitor, single point]"
CCN(CC)/[N+]([O-])=N/OCOC(=O)c1ccccc1OC(C)=O,inactive: -13.2%,–
Nc1nc(SCc2nc(-c3ccccc3)no2)[nH]c(=O)c1-c1ccccc1,–,"inconclusive: 79.4 µM [inhibitor, partial curve]"
CCOC(=O)CSC1=C(C#N)C(c2ccc(C)cc2)C2=C(CCCC2=O)N1 (centres undefined),inactive: 10.4%,–

# Quoted from the entries so far, four compounds:
Structure (SMILES),"activity, negative = inhibition",Potency
COc1ccc(-n2nc(C#N)c(Cl)cc2=O)cc1,–,"inconclusive: 22.4 µM [inhibitor, full curve]"
Cc1ccccc1Cn1c2ccccc2c2cnn(CC(=O)NCCCc3ccccc3)c(=O)c21,inactive: 23.9%,–
CN(C)c1cccc(C(=O)OCC(=O)c2ccc[nH]2)c1,–,"inconclusive: 12.6 µM [inhibitor, partial curve, poor fit]"
COc1cc(-c2noc(-c3ccc(N(C)C)c([N+](=O)[O-])c3)n2)cc(OC)c1OC,–,"inconclusive: 89.1 µM [inhibitor, single point]"

# Later entries

Structure (SMILES),"activity, negative = inhibition",Potency
C[C@H](NC(=O)OC(C)(C)C)[C@@H](O)c1ccco1,inactive: 47.4%,–
S=c1[nH]nc(-c2n[nH]c3c2CCC3)n1/N=C/C=C/c1ccccc1,–,"inconclusive: 25.1 µM [inhibitor, partial curve, poor fit]"
CN(C)C(=S)NCc1ccccc1,inactive: 5.83%,–
Clc1ccc2nc(Nc3ccccc3Cl)nc(-c3ccccc3)c2c1,inactive: -1.12%,–
O=C(Cn1ncc(Cl)c(Cl)c1=O)c1ccc2c(c1)OCCO2,–,"inconclusive: 56.2 µM [inhibitor, partial curve]"
CCOc1ccccc1NC(=O)Nc1cc(C(=O)NCc2ccc(C)cc2)ccc1N1CCCC1,inactive: 24.5%,–
CC1=C(/C=C/C(C)=C/C=C/C(C)=C\C(=O)O)C(C)(C)CCC1,–,"inconclusive: 1.12 µM [inhibitor, full curve, poor fit]"
COc1cc(/C=C/C(=O)OCC(=O)Nc2ccc(S(N)(=O)=O)cc2)ccc1O,–,"inconclusive: 17.8 µM [inhibitor, full curve, poor fit]"
CCn1c(=O)c2cc(S(=O)(=O)NCCOc3ccccc3)ccc2n(CC)c1=O,–,"inconclusive: 100 µM [inhibitor, single point]"
COc1cc(N(C)C)c(OC)cc1/C=C1\Cc2ccccc2C1=O,–,"inconclusive: 39.8 µM [inhibitor, partial curve, poor fit]"
O=C(Nc1ccc(S(=O)(=O)Nc2cnc3ccccc3n2)cc1)c1cc(F)c(F)cc1Cl,inactive: 83.8%,–
COc1ccc(N(CC(=O)N2CCN(Cc3ccccc3)CC2)S(C)(=O)=O)cc1Cl,–,"inconclusive: 39.8 µM [inhibitor, single point]"
COC(=O)/C=C1\SC(=NC(=O)c2ccc(OC)cc2)NC1=O,inactive: 0.709%,–
CCCCCCC1(C)NC(c2ccc3c(c2)OCO3)=CC(c2ccccc2O)N1 (centres undefined),–,"inconclusive: 7.94 µM [inhibitor, partial curve, poor fit]"
NC(N)=Nc1nc(CSCC/C(N)=N/S(N)(=O)=O)cs1,–,"inconclusive: 10 µM [inhibitor, full curve, poor fit]"
COc1cccc(-c2nc3c(C#N)c[nH]n3c2NC2CCCC2)c1OC,inactive: 27%,–
CC(/C=C1\SC(=S)N(C(C(=O)O)c2ccccc2)C1=O)=C\c1ccccc1 (centres undefined),–,"inconclusive: 28.2 µM [inhibitor, single point]"
Cc1ccc(N2CC(O)Cn3c2nc2c3c(=O)n(C)c(=O)n2C)cc1 (centres undefined),–,"inconclusive: 7.94 µM [inhibitor, partial curve, poor fit]"
N#C/C(=C/c1ccc2c(c1)OCO2)C(=O)Nc1ccc(O)cc1,–,"inconclusive: 89.1 µM [inhibitor, partial curve, poor fit]"
COc1cccc(OCC(=O)NNC(=O)c2ccc(-c3ccccc3)cc2)c1,–,"inconclusive: 15.8 µM [inhibitor, partial curve, poor fit]"
